In patent US20060088502A1, “Drug for reducing side effects in ribavirin interferon combination therapy” (priority 2003, published 2006):
At least one compound was matched to its structure with a doubt left.

Experiments:
[1] = system: patients with chronic hepatitis C who had developed anemia due to ribavirin/IFN α combination therapy; type: in vivo, human
Experimental: After the onset of anemia, each patient received 600 mg of EPA-E (trade name: Epadel, manufactured by Mochida Pharmaceutical Co., Ltd.) three times a day by oral administration every after meal for 2 months. Depending on the disease cases, the time of starting the administration of EPA-E varied within the range from 1 to 4 months after the start of administration of ribavirin/IFN α. In the ribavirin/IFN α combination therapy, ribavirin (trade name: Rebetol, manufactured by Schering-Plough Corporation) was orally administered to each patient of over 60 kg in body weight at a dose of 400 mg every after morning meal and every after evening meal as well, and to each patient of 60 kg or less at a dose of 200 mg every after morning meal and 400 mg every after evening meal. Simultaneously, 6 million IU a day of IFN α-2b (trade name: Intron A, manufactured by Schering-Plough Corporation) was intramuscularly administered everyday for two weeks, followed by intermittent administration of three times a week for 22 weeks.

erythrocyte membrane = details: administration to a healthy person; cited from earlier work

Compound: CC/C=C\C/C=C\C/C=C\C/C=C\C/C=C\CCCC(=O)OCC [EPA, eicosapentaenoic acid ethyl ester]
- Improvement in hemoglobin level ([1]; EPA administration, 6 cases): significant improvement
- Completion of 24-week ribavirin/IFN α administration ([1]; all six cases, with EPA administration): could be completed without reducing or discontinuing the dosage of ribavirin and IFN α
- Onset level, maximum level and end level of hemolysis (erythrocyte membrane): shifted toward a lower osmotic pressure
